# Data as given in article PMC7819943, “Rice protein-binding microarrays: a tool to detect cis-acting elements near promoter regions in rice”.
# Some of the results follow.
# Biological target: T1, OsSMF1 (Oryza sativa, UniProt Q6ZLB0 1-436)
# T1 sequence: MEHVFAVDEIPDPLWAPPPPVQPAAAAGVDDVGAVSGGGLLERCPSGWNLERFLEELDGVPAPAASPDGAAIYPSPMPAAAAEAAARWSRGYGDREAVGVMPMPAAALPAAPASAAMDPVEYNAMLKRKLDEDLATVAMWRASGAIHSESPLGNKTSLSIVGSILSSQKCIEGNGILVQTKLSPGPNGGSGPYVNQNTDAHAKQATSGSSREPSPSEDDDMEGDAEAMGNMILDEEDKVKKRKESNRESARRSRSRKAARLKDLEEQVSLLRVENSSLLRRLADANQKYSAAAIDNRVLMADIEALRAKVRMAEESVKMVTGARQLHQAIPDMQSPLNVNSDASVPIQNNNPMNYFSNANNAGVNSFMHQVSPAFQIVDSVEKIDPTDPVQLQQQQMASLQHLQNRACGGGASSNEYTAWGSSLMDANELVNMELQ
# Assay: protein-binding microarray (RPBM); PBS, 2% BSA, 51.3 ng/ul salmon testes DNA, 50 uM zinc acetate, 200 nM TF, 25 C, 1 h; high values mean tight binding
# Conditions: protein: recombinant; tags: N-terminal polyhistidine and DsRed monomer fusion (pET32a); chain copies: 2; label: CyDye5-dUTP incorporated in the synthesized complementary strand; 3' TTTTT single-stranded linker to array surface; dsDNA, one strand shown
# Method in brief: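 An Axon 4000B scanner gave the binding signal as per-feature fluorescence intensity in arbitrary units. This followed washing of a custom Agilent array that had been incubated for 1 h at 25 °C with 200 nM protein in PBS, 2% BSA, salmon testes DNA and 50 µM zinc acetate. The proteins were transcription factors fused at the N-terminus to polyhistidine and DsRed, expressed in E. coli BL21-CodonPlus and purified on Ni–NTA.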
row,Sequence,binding signal
1,ACACTCCTGTGCCGCGTTTTCGCCGAGGCTGACAGGTGGGCGGAGTCACCTAGTGCAG,3860 fluorescence intensity (a.u.)
2,CCGCTTGATCTGCTGCCAACCACGACACGATCACACGATCCGGAGTCACCTAGTGCAG,3420 fluorescence intensity (a.u.)
3,GCGCCCCATGTCTGGATTGCACGTCAGGCGCCTGCTTGACCGGAGTCACCTAGTGCAG,5390 fluorescence intensity (a.u.)
4,ACAAGTAATCAAAGACGGCATGACACGTAGCTTTCTAGACCGGAGTCACCTAGTGCAG,8230 fluorescence intensity (a.u.)
5,TGCGGTCTCATCGCCGTCGTCATCGCCGCCGCCGCCGCCCCGGAGTCACCTAGTGCAG,5130 fluorescence intensity (a.u.)
6,GGTCCATTTAATTTGGCACAGATATCACAAGTGCTAGCTCCGGAGTCACCTAGTGCAG,27100 fluorescence intensity (a.u.)
7,GGGCCGGTTTACCCGCCCACGTCGCCACGAGCGGCGAACCCGGAGTCACCTAGTGCAG,3210 fluorescence intensity (a.u.)
8,CGTGCAGGCGGGCGGGGCCAGGAGATGGTGGCCAGCGTGCCGGAGTCACCTAGTGCAG,28100 fluorescence intensity (a.u.)
9,CCCGTTACTCTGAGCCGAGGGACCCACACGTCGACTCACCCGGAGTCACCTAGTGCAG,4840 fluorescence intensity (a.u.)
10,AGGAAAGGAAGAGGGAGGAGTCACTTAAGTATCCCGTCCTCGGAGTCACCTAGTGCAG,3540 fluorescence intensity (a.u.)
11,CCATAATTCAATCTTACAATGGCGTCATCTCTTTATTATTCGGAGTCACCTAGTGCAG,7580 fluorescence intensity (a.u.)
12,CCCCGCCGCCGTCATCCCCGGACGAGCTGCTCCCGGACCACGGAGTCACCTAGTGCAG,4230 fluorescence intensity (a.u.)
13,CTGCTTCTTCTCCTATAAGTAGGGCGATCTCACTCTCTCGCGGAGTCACCTAGTGCAG,23000 fluorescence intensity (a.u.)
14,TCACGCGTGGACGAGGCGGCCGCAGACAGCACCACGGCCACGGAGTCACCTAGTGCAG,3370 fluorescence intensity (a.u.)
15,GATTATCCTGCAGTCATGTCATGCTTCTCCCCTCCCTGCACGGAGTCACCTAGTGCAG,3760 fluorescence intensity (a.u.)
16,ATCCATAGCGGTTAGTAGCCCTGACGACGATGGTGTTGTTCGGAGTCACCTAGTGCAG,3140 fluorescence intensity (a.u.)
17,AACTACCCACTCTCAGCGCCACACCTCGATGTCATTGAGGCGGAGTCACCTAGTGCAG,4840 fluorescence intensity (a.u.)
18,TATGATGCATACATCACAAATCCTAGGTGTATAGTGTCTCCGGAGTCACCTAGTGCAG,3420 fluorescence intensity (a.u.)
19,CGGCTGCAGGCGAGCTCGCGGTGGGACGGCCAGCTCCGAGCGGAGTCACCTAGTGCAG,31100 fluorescence intensity (a.u.)
20,CAATCGATGTAAGGTGTCGTTTGTGTTAGATAGAGCAGTGCGGAGTCACCTAGTGCAG,33800 fluorescence intensity (a.u.)
21,ACTCCTTTATTAGTATTTGTTTCTGTCATCACTGTGCTTCCGGAGTCACCTAGTGCAG,3590 fluorescence intensity (a.u.)

row,Sequence,binding signal
1,CATTGGGCTATATAATTAACTTTATGATTCATCCTCATTCCGGAGTCACCTAGTGCAG,3510 fluorescence intensity (a.u.)
2,AAATACCGTACACGTAGGTGTAGAAACTGTTGCCGTATTTCGGAGTCACCTAGTGCAG,7220 fluorescence intensity (a.u.)
3,CCCACGGAGCCGCCACATCACGGATCCCCACGCCGGGGCGCGGAGTCACCTAGTGCAG,7180 fluorescence intensity (a.u.)
4,ATGCCATCGTACATAAACGCCTCGTGTTCATGTGTTAGGCCGGAGTCACCTAGTGCAG,5260 fluorescence intensity (a.u.)
5,AGTGTGTGCGTGCGTCAACACACAGCTCAAGCTTACGCGGCGGAGTCACCTAGTGCAG,6860 fluorescence intensity (a.u.)
6,AGCCCTCTTAGCTCTTTTGCAAGCGGCCCTCTAGAGCAAACGGAGTCACCTAGTGCAG,26500 fluorescence intensity (a.u.)
7,ACGCCACAAGAGGTTGAGGTTGAGGATGGCGGCTACAAGCCGGAGTCACCTAGTGCAG,24500 fluorescence intensity (a.u.)
8,TTATTATTATTATTATGTTTTCCTTGTTACCTTCTGAGCACGGAGTCACCTAGTGCAG,3730 fluorescence intensity (a.u.)
9,CTGCCTTGCGTGCGTATGGTAGGAAAGGGAAAGCGTTTGCCGGAGTCACCTAGTGCAG,3920 fluorescence intensity (a.u.)
10,AACGAGCATCCTCCTCCGCGTGGGCCACACGCTGCGTTTACGGAGTCACCTAGTGCAG,3640 fluorescence intensity (a.u.)
11,TAATATTCAACATTTGGAATAAGATTCGGTTACTTATAAACGGAGTCACCTAGTGCAG,18100 fluorescence intensity (a.u.)
12,CAATGATAGGTGGTATGCTTTTGATGTGACAACAAATTGACGGAGTCACCTAGTGCAG,3860 fluorescence intensity (a.u.)
13,TCTTCCACCTCGGCGAGGAGGGTGGCGTCGTCCACTGCCACGGAGTCACCTAGTGCAG,3330 fluorescence intensity (a.u.)
14,GTGTTCAAAGACGTGCACTTCTCGTACCCGTCGAGGCCGGCGGAGTCACCTAGTGCAG,3560 fluorescence intensity (a.u.)
15,TCCTGAAGATGACTGGAACATGACTGTGGATCTGCATAAACGGAGTCACCTAGTGCAG,3640 fluorescence intensity (a.u.)
16,GGTCTAGTGGCCGTTATGTGTGCTGTCACGTCAGGCCGGCCGGAGTCACCTAGTGCAG,4840 fluorescence intensity (a.u.)
17,TGTTAGCTCCTCACCGTCACCGGTGTGCCTCGCGTCGTTCCGGAGTCACCTAGTGCAG,3840 fluorescence intensity (a.u.)
18,GCTACGACGACTAAACATGGCGTGTCAGCCAGTAAGCACCCGGAGTCACCTAGTGCAG,4490 fluorescence intensity (a.u.)
19,GGGCCTTCCGACGGCATCGTCATGGTTAGACCGGCGGGGACGGAGTCACCTAGTGCAG,3240 fluorescence intensity (a.u.)
20,TGGAAAGAGGAGGGCGGGGAGAGGACTGGGGAGGGCGGGGCGGAGTCACCTAGTGCAG,8260 fluorescence intensity (a.u.)
21,GGAGAGGAGGCGGAGGTGAAGGGGAAGGGGCAGGGGAGGACGGAGTCACCTAGTGCAG,3720 fluorescence intensity (a.u.)

# Rewritten with bars between the fields: part of the list above
row | Sequence | binding signal
15 | GATTATCCTGCAGTCATGTCATGCTTCTCCCCTCCCTGCACGGAGTCACCTAGTGCAG | 3760 fluorescence intensity (a.u.)
16 | ATCCATAGCGGTTAGTAGCCCTGACGACGATGGTGTTGTTCGGAGTCACCTAGTGCAG | 3140 fluorescence intensity (a.u.)
14 | GTGTTCAAAGACGTGCACTTCTCGTACCCGTCGAGGCCGGCGGAGTCACCTAGTGCAG | 3560 fluorescence intensity (a.u.)
